Source: PMC9156784

Amino acid sequences for entries named in this document (tags omitted). A change or cut given only in a name is not applied to a line headed by its entry.
UniProt Q4VQ79: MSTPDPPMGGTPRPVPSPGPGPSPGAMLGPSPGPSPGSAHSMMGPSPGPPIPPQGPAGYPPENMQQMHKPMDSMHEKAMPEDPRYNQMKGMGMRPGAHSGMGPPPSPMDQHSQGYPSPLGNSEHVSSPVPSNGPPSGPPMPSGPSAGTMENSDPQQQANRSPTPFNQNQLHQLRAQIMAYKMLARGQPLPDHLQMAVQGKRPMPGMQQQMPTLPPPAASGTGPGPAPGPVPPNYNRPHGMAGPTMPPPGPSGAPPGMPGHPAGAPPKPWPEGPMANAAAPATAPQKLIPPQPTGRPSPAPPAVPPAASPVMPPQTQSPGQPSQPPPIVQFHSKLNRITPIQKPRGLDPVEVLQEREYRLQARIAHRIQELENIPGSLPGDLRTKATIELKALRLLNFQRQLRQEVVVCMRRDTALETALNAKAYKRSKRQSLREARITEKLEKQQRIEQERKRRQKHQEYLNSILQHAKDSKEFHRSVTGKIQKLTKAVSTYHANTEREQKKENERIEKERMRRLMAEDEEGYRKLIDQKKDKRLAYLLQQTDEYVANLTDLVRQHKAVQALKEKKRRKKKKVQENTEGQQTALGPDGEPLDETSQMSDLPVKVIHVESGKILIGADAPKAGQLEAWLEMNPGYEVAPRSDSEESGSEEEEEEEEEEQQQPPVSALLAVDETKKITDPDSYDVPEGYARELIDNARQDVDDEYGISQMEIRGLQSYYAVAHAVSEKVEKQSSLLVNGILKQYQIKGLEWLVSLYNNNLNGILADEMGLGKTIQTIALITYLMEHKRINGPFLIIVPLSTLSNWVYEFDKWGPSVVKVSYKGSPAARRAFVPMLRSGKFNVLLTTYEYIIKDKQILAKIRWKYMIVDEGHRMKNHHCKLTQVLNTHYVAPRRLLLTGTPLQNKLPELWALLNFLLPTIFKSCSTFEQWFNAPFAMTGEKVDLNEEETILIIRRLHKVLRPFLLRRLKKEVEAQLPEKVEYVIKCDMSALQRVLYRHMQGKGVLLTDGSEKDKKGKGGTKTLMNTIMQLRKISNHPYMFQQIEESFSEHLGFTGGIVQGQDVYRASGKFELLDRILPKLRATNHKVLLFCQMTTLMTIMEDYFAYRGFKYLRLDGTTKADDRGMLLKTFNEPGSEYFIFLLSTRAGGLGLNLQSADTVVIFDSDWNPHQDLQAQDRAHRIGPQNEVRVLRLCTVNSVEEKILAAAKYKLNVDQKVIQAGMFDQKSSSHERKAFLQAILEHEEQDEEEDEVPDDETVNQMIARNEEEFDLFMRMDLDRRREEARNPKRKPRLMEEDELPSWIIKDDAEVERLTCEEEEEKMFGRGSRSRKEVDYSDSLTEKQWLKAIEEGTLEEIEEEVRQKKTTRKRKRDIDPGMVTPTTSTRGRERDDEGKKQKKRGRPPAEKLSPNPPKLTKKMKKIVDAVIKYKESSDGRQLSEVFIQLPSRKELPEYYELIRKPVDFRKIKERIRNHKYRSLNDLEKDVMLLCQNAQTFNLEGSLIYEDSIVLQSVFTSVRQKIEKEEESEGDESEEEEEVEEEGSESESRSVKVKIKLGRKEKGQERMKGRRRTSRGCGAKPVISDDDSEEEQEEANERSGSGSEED

T1: CtIP (Xenopus laevis (endogenous in egg extract)) (UniProt Q6GNV6)
T1 sequence: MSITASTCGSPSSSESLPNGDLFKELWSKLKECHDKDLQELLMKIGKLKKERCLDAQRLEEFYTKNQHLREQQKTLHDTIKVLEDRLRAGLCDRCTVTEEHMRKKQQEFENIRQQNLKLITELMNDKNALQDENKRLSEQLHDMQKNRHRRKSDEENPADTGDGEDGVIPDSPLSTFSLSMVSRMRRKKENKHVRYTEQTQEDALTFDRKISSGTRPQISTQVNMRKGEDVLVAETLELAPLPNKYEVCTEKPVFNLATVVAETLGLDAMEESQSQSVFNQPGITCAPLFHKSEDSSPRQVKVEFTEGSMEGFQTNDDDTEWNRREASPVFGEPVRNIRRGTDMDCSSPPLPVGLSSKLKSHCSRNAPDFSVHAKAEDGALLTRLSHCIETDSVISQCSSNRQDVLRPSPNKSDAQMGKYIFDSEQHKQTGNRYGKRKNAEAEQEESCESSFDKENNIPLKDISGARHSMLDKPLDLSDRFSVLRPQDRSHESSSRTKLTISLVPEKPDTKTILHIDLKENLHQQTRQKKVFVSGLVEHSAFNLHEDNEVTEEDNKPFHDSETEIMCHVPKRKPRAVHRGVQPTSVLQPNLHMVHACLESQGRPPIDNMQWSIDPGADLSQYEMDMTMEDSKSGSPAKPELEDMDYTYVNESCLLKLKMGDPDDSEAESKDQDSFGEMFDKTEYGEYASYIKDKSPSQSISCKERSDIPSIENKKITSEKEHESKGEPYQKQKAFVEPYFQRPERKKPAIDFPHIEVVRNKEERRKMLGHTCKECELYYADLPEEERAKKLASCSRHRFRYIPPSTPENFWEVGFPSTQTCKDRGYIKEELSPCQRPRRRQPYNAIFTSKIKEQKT


What was measured:
Assay in all cases: co-IP; antibody (mock, BRD4, BRG1 or CtIP) conjugated to Protein A Sepharose beads; mixture of HSS and NPE diluted 8-fold in IP Buffer (10 mM HEPES-KOH pH 7.7, 2.5 mM MgCl2, 50 mM KCl, 250 mM sucrose, 0.02% Tween-20), 4 °C, 90 min; 4 washes; Western blot
[1] = target: T1, CtIP (Xenopus laevis (endogenous in egg extract))
[2] = target: Brahma-Related Gene 1 (BRG1) (Xenopus (endogenous in egg extract)) (UniProt Q4VQ79)
[3] = target: BRD4 (Xenopus laevis (endogenous in egg extract))

| binding [1] | binding [2] | binding [3] | Molecule |
| --- | --- | --- | --- |
| binds | – | – | BRD4 |
| binds | – | – | Brahma-Related Gene 1 (BRG1) (from UniProt Q4VQ79) |
| – | binds | binds | CtIP (protein, UniProt Q6GNV6 1-856) MSITASTCGSPSSSESLPNGDLFKELWSKLKECHDKDLQELLMKIGKLKKERCLDAQRLEEFYTKNQHLREQQKTLHDTIKVLEDRLRAGLCDRCTVTEEHMRKKQQEFENIRQQNLKLITELMNDKNALQDENKRLSEQLHDMQKNRHRRKSDEENPADTGDGEDGVIPDSPLSTFSLSMVSRMRRKKENKHVRYTEQTQEDALTFDRKISSGTRPQISTQVNMRKGEDVLVAETLELAPLPNKYEVCTEKPVFNLATVVAETLGLDAMEESQSQSVFNQPGITCAPLFHKSEDSSPRQVKVEFTEGSMEGFQTNDDDTEWNRREASPVFGEPVRNIRRGTDMDCSSPPLPVGLSSKLKSHCSRNAPDFSVHAKAEDGALLTRLSHCIETDSVISQCSSNRQDVLRPSPNKSDAQMGKYIFDSEQHKQTGNRYGKRKNAEAEQEESCESSFDKENNIPLKDISGARHSMLDKPLDLSDRFSVLRPQDRSHESSSRTKLTISLVPEKPDTKTILHIDLKENLHQQTRQKKVFVSGLVEHSAFNLHEDNEVTEEDNKPFHDSETEIMCHVPKRKPRAVHRGVQPTSVLQPNLHMVHACLESQGRPPIDNMQWSIDPGADLSQYEMDMTMEDSKSGSPAKPELEDMDYTYVNESCLLKLKMGDPDDSEAESKDQDSFGEMFDKTEYGEYASYIKDKSPSQSISCKERSDIPSIENKKITSEKEHESKGEPYQKQKAFVEPYFQRPERKKPAIDFPHIEVVRNKEERRKMLGHTCKECELYYADLPEEERAKKLASCSRHRFRYIPPSTPENFWEVGFPSTQTCKDRGYIKEELSPCQRPRRRQPYNAIFTSKIKEQKT |

Results are given in words; binding and its absence hold for the method and conditions named. Binding seen in cells or lysates may run through a third protein. Binding calls can cover weak binding; strength is not graded here.
